Drawing on patent US7279548, this text covers binding for one molecule.

By UniProt entry, the sequences of proteins in these tests, tags left out. Where a name states a change or a piece, a line headed by the entry shows the natural chain unless it says otherwise.
UniProt P51795: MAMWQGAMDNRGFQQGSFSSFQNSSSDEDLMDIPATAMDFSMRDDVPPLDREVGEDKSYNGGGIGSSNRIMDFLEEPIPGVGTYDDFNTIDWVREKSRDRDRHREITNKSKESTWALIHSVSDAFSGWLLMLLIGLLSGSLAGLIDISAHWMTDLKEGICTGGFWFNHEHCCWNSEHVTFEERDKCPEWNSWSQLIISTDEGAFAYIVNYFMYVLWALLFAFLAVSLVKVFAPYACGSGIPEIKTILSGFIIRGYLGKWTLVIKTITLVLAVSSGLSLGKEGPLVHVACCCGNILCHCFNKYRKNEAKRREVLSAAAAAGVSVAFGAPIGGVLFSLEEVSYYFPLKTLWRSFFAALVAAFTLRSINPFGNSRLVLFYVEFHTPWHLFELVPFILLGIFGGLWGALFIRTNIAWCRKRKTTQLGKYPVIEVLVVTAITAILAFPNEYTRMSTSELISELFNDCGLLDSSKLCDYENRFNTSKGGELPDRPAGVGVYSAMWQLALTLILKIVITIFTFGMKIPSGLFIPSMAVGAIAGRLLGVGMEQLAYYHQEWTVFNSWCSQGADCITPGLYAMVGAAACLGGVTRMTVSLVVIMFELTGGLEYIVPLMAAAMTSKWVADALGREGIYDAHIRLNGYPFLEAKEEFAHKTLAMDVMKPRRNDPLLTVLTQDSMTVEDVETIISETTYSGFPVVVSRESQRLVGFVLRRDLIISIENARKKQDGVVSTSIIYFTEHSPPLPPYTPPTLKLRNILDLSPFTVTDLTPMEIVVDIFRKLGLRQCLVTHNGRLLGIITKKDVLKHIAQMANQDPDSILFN

Assay [1] concerns the target WWP1.4 WW domain expressed as GST fusion protein (human). Kind of assay: ELISA cross affinity mapping, GST-WW fusion. In general terms: An ELISA detects its analyte on a solid surface through an enzyme-linked reagent.
Assay [2] concerns the target WWP2.4 WW domain expressed as GST fusion protein (human). The assay can be described thus: ELISA cross affinity mapping, GST-WW fusion.

No constants are given. Whether binding was seen depends on the method and setting. Some binding calls cover weakened binding; strength is not graded here.

B1: renal chloride channel CLCN5 peptide (peptide, UniProt P51795 736-745, looked up)
peptide: SPPLPPYTPP
modifications: biotinylated
For the molecule B1, the binding result in assay [1] and in assay [2] was “binds” in each case.
